In paper PMC7892623:
No constants are given. Whether binding was seen depends on the method and setting. Binding seen in cells or lysates may run through a third protein. Some entries that bind do so weakly or less than the wild type.

Amino acid sequences for entries named in this document (tags omitted).
UniProt Q15910: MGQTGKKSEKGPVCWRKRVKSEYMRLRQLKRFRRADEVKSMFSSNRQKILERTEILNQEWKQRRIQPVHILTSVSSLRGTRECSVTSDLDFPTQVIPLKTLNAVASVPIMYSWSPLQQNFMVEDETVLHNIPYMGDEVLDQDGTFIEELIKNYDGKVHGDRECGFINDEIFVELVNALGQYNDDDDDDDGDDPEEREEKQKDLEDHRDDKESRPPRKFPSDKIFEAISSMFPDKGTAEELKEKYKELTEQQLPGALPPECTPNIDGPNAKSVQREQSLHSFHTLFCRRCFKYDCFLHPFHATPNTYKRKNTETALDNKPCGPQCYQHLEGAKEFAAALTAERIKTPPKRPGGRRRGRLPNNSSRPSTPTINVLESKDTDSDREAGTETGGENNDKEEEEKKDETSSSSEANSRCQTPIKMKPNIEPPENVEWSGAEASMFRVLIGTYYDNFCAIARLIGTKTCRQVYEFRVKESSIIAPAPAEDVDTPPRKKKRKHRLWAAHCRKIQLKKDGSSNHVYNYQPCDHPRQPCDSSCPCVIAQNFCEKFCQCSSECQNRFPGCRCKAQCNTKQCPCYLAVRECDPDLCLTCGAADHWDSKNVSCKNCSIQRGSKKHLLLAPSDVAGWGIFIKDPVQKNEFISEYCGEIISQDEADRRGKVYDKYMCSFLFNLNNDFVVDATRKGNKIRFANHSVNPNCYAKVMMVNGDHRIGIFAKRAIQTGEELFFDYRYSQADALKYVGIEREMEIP

Target: EZH2 (human (endogenous in HepG2 and PLC8024)) (UniProt Q15910)
Experiment: co-IP; precipitation with a specific antibody for DDX11 or for EZH2 from HepG2 and PLC8024 cells, detection by western blot; no further conditions given

binding: binds
B1: DDX11 (protein, UniProt Q96FC9 1-970)
chain: MANETQKVGAIHFPFPFTPYSIQEDFMAELYRVLEAGKIGIFESPTGTGKSLSLICGALSWLRDFEQKKREEEARLLETGTGPLHDEKDESLCLSSSCEGAAGTPRPAGEPAWVTQFVQKKEERDLVDRLKAEQARRKQREERLQQLQHRVQLKYAAKRLRQEEEERENLLRLSREMLETGPEAERLEQLESGEEELVLAEYESDEEKKVASRVDEDEDDLEEEHITKIYYCSRTHSQLAQFVHEVKKSPFGKDVRLVSLGSRQNLCVNEDVKSLGSVQLINDRCVDMQRSRHEKKKGAEEEKPKRRRQEKQAACPFYNHEQMGLLRDEALAEVKDMEQLLALGKEARACPYYGSRLAIPAAQLVVLPYQMLLHAATRQAAGIRLQDQVVIIDEAHNLIDTITGMHSVEVSGSQLCQAHSQLLQYVERYGKRLKAKNLMYLKQILYLLEKFVAVLGGNIKQNPNTQSLSQTGTELKTINDFLFQSQIDNINLFKVQRYCEKSMISRKLFGFTERYGAVFSSREQPKLAGFQQFLQSLQPRTTEALAAPADESQASTLRPASPLMHIQGFLAALTTANQDGRVILSRQGSLSQSTLKFLLLNPAVHFAQVVKECRAVVIAGGTMQPVSDFRQQLLACAGVEAERVVEFSCGHVIPPDNILPLVICSGISNQPLEFTFQKRELPQMMDEVGRILCNLCGVVPGGVVCFFPSYEYLRQVHAHWEKGGLLGRLAARKKIFQEPKSAHQVEQVLLAYSRCIQACGQERGQVTGALLLSVVGGKMSEGINFSDNLGRCVVMVGMPFPNIRSAELQEKMAYLDQTLSPRPGTPREGSGGEPVHEGRQPVHRQGHQAPEGFCQRSAPGPAICPAPCPGQAAGLDPSPCGGQSYLWPRHCCCAEVSPGEVGLFLMGNHTTAWRRALPLSCPLETVFVVGVVCGDPVTKVKPRRRVWSPECCQDPGTGVSSRRRKWGNPE
